Source: publication PMC10470592
Results are given in words; binding and its absence hold for the method and conditions named. In cells and extracts the contact can be indirect. Sequences can lack the tags named with a protein.

By UniProt entry, the sequences of proteins in these tests, tags left out.
UniProt Q8N884: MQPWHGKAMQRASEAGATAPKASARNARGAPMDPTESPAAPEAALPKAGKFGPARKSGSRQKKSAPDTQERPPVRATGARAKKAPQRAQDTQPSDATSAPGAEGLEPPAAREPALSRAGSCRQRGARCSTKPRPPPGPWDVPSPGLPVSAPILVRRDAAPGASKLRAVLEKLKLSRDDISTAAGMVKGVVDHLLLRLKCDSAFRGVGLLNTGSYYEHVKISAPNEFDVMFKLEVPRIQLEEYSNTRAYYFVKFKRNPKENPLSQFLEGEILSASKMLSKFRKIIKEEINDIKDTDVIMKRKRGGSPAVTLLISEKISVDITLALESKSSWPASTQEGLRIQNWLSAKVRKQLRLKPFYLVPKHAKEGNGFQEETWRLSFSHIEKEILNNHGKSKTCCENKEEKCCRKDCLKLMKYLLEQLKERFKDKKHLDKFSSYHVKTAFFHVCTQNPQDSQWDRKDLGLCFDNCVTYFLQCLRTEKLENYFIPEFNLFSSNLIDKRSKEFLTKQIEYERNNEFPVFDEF
UniProt Q96CV9: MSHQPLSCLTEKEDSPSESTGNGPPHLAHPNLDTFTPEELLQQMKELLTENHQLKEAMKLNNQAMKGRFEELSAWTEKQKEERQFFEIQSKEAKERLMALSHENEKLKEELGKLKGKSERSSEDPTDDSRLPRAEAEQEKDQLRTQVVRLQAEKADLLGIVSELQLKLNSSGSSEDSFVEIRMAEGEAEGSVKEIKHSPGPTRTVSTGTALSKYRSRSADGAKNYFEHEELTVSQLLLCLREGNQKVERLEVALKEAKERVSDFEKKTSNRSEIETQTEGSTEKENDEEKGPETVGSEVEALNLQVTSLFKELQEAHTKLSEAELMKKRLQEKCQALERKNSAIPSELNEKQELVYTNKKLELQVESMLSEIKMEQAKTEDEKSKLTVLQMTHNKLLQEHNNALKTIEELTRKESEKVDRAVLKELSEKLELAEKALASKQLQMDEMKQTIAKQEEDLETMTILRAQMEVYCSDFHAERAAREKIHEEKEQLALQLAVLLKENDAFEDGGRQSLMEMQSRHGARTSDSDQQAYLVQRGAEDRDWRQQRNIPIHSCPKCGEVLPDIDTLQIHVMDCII

Tests used:
Experiment in all cases: co-IP; 293T cells co-transfected with HA-tagged SHIP1 constructs and Flag-tagged partners; IP using anti-Flag beads and immunoblot with anti-HA (Fig. 3C, 5A; also Fig. 3H, 3I, S3A, S5A); Flag-IRF3 with HA-SHIP1 also in NDP52 KO 293T cells, where the interaction was reduced (Fig. 5J)
[1] = target: cyclic GMP-AMP synthase (cGAS) (UniProt Q8N884)
[2] = target: T1, melanoma differentiation-associated protein 5 (MDA5) (UniProt Q9BYX4)
T1 sequence: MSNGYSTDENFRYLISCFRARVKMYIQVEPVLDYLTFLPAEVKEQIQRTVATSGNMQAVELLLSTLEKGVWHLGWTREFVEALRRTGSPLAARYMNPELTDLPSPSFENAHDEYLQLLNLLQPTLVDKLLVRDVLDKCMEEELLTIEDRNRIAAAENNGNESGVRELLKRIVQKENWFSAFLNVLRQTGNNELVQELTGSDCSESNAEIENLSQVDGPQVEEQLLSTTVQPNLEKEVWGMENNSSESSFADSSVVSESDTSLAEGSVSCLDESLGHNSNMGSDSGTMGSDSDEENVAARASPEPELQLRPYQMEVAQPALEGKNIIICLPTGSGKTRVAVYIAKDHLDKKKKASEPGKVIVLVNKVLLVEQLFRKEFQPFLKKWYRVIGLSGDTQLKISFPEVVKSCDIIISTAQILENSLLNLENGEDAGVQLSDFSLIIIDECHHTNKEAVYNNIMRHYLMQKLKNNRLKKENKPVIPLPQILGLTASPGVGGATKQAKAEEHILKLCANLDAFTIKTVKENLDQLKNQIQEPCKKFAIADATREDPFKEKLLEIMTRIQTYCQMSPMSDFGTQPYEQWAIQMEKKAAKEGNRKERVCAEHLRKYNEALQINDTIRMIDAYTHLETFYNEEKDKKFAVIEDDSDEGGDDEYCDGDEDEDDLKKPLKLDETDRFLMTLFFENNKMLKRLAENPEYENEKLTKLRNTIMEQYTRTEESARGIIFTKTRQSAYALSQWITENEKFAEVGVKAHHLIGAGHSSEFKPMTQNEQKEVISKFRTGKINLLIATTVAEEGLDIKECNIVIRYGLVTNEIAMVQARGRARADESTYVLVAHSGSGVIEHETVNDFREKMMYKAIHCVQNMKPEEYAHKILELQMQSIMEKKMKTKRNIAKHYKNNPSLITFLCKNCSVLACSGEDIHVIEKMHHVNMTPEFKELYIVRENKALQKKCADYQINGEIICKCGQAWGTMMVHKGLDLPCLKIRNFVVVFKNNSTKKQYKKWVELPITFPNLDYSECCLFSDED

[3] = target: T2, RIG-I (Retinoic-acid-inducible gene I) (UniProt O95786)
T2 sequence: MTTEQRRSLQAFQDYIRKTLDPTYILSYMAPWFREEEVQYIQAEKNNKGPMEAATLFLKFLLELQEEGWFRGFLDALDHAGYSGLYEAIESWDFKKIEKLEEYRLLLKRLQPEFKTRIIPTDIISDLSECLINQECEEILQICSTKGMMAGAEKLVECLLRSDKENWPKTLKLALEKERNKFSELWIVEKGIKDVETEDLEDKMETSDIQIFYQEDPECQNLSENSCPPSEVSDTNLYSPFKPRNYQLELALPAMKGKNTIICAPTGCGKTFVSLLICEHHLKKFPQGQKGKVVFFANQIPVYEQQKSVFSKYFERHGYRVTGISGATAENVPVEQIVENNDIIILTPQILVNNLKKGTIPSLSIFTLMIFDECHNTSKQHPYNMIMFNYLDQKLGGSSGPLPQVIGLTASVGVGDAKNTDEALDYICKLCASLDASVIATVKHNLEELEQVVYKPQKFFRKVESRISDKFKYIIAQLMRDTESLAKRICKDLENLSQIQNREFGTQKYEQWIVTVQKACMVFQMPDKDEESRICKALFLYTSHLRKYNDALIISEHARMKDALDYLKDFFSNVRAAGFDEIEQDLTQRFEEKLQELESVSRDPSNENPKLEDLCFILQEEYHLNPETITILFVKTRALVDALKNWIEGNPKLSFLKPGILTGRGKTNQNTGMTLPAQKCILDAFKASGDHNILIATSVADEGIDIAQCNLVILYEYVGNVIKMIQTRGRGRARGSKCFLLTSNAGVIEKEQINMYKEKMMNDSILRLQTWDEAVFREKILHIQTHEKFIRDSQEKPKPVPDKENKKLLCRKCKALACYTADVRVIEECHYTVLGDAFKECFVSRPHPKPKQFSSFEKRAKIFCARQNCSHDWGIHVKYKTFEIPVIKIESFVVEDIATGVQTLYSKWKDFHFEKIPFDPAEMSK

[4] = target: Flag-tagged optineurin (OPTN) (UniProt Q96CV9)

Measured: binding

B1: HA-tagged SHIP1 (Src homology 2 containing inositol phosphatase 1), full length (protein, UniProt Q92835 1-1189)
chain: MVPCWNHGNITRSKAEELLSRTGKDGSFLVRASESISRAYALCVLYRNCVYTYRILPNEDDKFTVQASEGVSMRFFTKLDQLIEFYKKENMGLVTHLQYPVPLEEEDTGDDPEEDTVESVVSPPELPPRNIPLTASSCEAKEVPFSNENPRATETSRPSLSETLFQRLQSMDTSGLPEEHLKAIQDYLSTQLAQDSEFVKTGSSSLPHLKKLTTLLCKELYGEVIRTLPSLESLQRLFDQQLSPGLRPRPQVPGEANPINMVSKLSQLTSLLSSIEDKVKALLHEGPESPHRPSLIPPVTFEVKAESLGIPQKMQLKVDVESGKLIIKKSKDGSEDKFYSHKKILQLIKSQKFLNKLVILVETEKEKILRKEYVFADSKKREGFCQLLQQMKNKHSEQPEPDMITIFIGTWNMGNAPPPKKITSWFLSKGQGKTRDDSADYIPHDIYVIGTQEDPLSEKEWLEILKHSLQEITSVTFKTVAIHTLWNIRIVVLAKPEHENRISHICTDNVKTGIANTLGNKGAVGVSFMFNGTSLGFVNSHLTSGSEKKLRRNQNYMNILRFLALGDKKLSPFNITHRFTHLFWFGDLNYRVDLPTWEAETIIQKIKQQQYADLLSHDQLLTERREQKVFLHFEEEEITFAPTYRFERLTRDKYAYTKQKATGMKYNLPSWCDRVLWKSYPLVHVVCQSYGSTSDIMTSDHSPVFATFEAGVTSQFVSKNGPGTVDSQGQIEFLRCYATLKTKSQTKFYLEFHSSCLESFVKSQEGENEEGSEGELVVKFGETLPKLKPIISDPEYLLDQHILISIKSSDSDESYGEGCIALRLEATETQLPIYTPLTHHGELTGHFQGEIKLQTSQGKTREKLYDFVKTERDESSGPKTLKSLTSHDPMKQWEVTSRAPPCSGSSITEIINPNYMGVGPFGPPMPLHVKQTLSPDQQPTAWSYDQPPKDSPLGPCRGESPPTPPGQPPISPKKFLPSTANRGLPPRTQESRPSDLGKNAGDTLPQEDLPLTKPEMFENPLYGSLSSFPKPAPRKDQESPKMPRKEPPPCPEPGILSPSIVLTKAQEADRGEGPGKQVPAPRLRSFTCSSSAEGRAAGGDKSQGKPKTPVSSQAPVPAKRPIKPSRSEINQQTPPTPTPRPPLPVKSPAVLHLQHSKGRDYRDNTELPHHGKHRPEEGPPGPLGRTAMQ
no binding: [1] | [2] | [3] | [4]
